How the values were obtained:
[1] = target: D(3) dopamine receptor (Rattus norvegicus, UniProt P19020)
[2] = target: T1, D(4) dopamine receptor (Rattus norvegicus, UniProt P30729)
T1 sequence (P30729 whole entry): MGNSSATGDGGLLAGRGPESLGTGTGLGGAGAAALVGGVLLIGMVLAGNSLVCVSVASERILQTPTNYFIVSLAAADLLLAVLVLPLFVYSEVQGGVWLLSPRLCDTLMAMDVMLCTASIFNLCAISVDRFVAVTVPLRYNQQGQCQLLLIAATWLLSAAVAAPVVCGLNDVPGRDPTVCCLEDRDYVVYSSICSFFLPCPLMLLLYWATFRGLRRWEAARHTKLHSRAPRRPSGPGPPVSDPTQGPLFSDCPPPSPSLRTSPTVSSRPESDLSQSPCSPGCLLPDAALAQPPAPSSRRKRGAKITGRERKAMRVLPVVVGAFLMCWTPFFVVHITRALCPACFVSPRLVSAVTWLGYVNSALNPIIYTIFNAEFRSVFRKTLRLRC

Amino acid sequences for entries named in this document (tags omitted).
UniProt P19020, whole entry: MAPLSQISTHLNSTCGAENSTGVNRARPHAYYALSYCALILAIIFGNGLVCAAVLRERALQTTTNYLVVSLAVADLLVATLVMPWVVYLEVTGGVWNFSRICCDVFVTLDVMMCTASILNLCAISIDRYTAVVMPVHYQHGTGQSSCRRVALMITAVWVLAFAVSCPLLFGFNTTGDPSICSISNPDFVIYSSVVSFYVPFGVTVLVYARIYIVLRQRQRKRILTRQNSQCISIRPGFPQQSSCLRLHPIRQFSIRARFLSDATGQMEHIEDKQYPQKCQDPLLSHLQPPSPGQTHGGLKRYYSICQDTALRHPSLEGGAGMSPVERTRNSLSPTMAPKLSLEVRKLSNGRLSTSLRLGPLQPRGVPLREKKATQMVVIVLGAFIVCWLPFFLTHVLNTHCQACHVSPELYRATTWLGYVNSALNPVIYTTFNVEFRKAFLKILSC

Ki [1]	Ki [2]	SMILES
2.3 nM	10 nM	CSc1ccc2c(c1)N(CC[C@@H]1CCCCN1C)c1ccccc1S2 [10-[2-(1-Methyl-piperidin-2-yl)-ethyl]-2-methylsulfanyl-10H-phenothiazine (thioridazine)]
340 nM	2000 nM	OCCOCCN1CCN(C2=Nc3ccccc3Sc3ccccc32)CC1 [2-[2-(4-dibenzo[b,f][1,4]thiazepin-11-ylpiperazin-1-yl)ethoxy]ethanol]

Source: BindingDB's records for PubMed 11171942 (University of Reading, 2001)
